The target in the test is CT-L activity of purified 20S proteasome (Homo sapiens, UniProt P20618+P28074). Kind of test: in vitro CT-L activity of purified 20S proteasome. It is filed as biochemical. To be noted: for IC50: read-out: IC50 (μM) Chymotrypsin-like activity, Table 4.

Structures are written as SMILES. The match of structure and compound is tentative.

As for `CC(C)N(Cc1nc(-c2ccc(Cl)cc2)no1)C(=O)COc1ccc(C(F)(F)F)cc1`, the IC50 was found to be 0.86 µM.
For `Cc1ccc(OCC(=O)N(Cc2nc(-c3ccccc3)no2)C(C)C)cc1`, the IC50 is 0.32 µM.
Consider `CC(C)N(Cc1nc(-c2ccc(C(F)(F)F)cc2)no1)C(=O)COc1ccc(C(F)(F)F)cc1`, for which the concentration for half-maximal inhibition (IC50) was 2.05 µM.
Take `CCN(Cc1nc(-c2ccc(C)cc2)no1)C(=O)COc1ccc(C)cc1`: the “CT-L inhibitory activity, in words” value is given as “loss of CT-L proteasome activity”.
